According to paper PMC6550527, “Evolution of Superinfection Immunity in Cluster A Mycobacteriophages”:

Biological target: T1, RepTrixie immunity repressor (Mycobacteriophage Trixie) (UniProt G1JV33)
T1 sequence (looked up, limits assumed): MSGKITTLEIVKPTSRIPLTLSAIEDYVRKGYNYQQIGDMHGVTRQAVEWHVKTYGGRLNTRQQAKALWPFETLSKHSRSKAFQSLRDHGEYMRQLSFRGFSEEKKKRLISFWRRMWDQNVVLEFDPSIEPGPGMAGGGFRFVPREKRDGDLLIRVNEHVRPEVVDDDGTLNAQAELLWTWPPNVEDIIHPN
Assay: EMSA
Conditions: Kd only in figure, EMSA on 8% polyacrylamide gel, serially diluted Rep with 5'-32P 30-bp dsDNA, binding buffer and temperature not given (ref. 54), protein storage buffer 50 mM Tris pH 8.0, recombinant protein, protein details: C-terminal His6 with linker (KLAAALEHHHHHH), label: 5' 32P

Row | Sequence | binding result (very low affinity) | also measured
1 | TAGTTCCAACTTGACACTCATCAGTGAGGG (double strand) [Alma stoperator 30-bp] | binds more weakly | 
2 | TGATCGCAACTTGACACCCACCGTGAGGGG (double strand) [Gladiator stoperator 30-bp] |  | binding result: binds more weakly
3 | TGACCTTGACTTGACATCGCACACTGGGAG (double strand) [Rockstar stoperator 30-bp] | binds more weakly | 
4 | TGAGCCTGACTTGACATCGCACGGCGGGGG (double strand) [Peaches stoperator 30-bp] | binds more weakly | 
5 | TGAGCAGTACTTGACATCGCACAGGTTGGG (double strand) [Trixie C9G10C11A12 (Peaches site)] |  | binding result (end of progressive loss series): binds more weakly

The exact form of at least one protein or probe is not confirmed. The comparison behind a weaker result is the experiment's own reference, which may not be listed here. At least one verdict rests on a figure or table, not on a statement of the authors. Tags and fusion partners may be left off the protein sequences shown.
